Measured values reported in the supplement of paper PMC11732987, “Enantioselective OTUD7B fragment discovery through chemoproteomics screening and high-throughput optimisation” (Communications Chemistry, 2025).
Some of the results follow. The data scatter; read single values as rough.

The chains behind the UniProt entries cited, without tags or fusion partners. Where a name states a change or a piece, a line headed by the entry shows the natural chain unless it says otherwise. Residues count along the entry.
UniProt O75179: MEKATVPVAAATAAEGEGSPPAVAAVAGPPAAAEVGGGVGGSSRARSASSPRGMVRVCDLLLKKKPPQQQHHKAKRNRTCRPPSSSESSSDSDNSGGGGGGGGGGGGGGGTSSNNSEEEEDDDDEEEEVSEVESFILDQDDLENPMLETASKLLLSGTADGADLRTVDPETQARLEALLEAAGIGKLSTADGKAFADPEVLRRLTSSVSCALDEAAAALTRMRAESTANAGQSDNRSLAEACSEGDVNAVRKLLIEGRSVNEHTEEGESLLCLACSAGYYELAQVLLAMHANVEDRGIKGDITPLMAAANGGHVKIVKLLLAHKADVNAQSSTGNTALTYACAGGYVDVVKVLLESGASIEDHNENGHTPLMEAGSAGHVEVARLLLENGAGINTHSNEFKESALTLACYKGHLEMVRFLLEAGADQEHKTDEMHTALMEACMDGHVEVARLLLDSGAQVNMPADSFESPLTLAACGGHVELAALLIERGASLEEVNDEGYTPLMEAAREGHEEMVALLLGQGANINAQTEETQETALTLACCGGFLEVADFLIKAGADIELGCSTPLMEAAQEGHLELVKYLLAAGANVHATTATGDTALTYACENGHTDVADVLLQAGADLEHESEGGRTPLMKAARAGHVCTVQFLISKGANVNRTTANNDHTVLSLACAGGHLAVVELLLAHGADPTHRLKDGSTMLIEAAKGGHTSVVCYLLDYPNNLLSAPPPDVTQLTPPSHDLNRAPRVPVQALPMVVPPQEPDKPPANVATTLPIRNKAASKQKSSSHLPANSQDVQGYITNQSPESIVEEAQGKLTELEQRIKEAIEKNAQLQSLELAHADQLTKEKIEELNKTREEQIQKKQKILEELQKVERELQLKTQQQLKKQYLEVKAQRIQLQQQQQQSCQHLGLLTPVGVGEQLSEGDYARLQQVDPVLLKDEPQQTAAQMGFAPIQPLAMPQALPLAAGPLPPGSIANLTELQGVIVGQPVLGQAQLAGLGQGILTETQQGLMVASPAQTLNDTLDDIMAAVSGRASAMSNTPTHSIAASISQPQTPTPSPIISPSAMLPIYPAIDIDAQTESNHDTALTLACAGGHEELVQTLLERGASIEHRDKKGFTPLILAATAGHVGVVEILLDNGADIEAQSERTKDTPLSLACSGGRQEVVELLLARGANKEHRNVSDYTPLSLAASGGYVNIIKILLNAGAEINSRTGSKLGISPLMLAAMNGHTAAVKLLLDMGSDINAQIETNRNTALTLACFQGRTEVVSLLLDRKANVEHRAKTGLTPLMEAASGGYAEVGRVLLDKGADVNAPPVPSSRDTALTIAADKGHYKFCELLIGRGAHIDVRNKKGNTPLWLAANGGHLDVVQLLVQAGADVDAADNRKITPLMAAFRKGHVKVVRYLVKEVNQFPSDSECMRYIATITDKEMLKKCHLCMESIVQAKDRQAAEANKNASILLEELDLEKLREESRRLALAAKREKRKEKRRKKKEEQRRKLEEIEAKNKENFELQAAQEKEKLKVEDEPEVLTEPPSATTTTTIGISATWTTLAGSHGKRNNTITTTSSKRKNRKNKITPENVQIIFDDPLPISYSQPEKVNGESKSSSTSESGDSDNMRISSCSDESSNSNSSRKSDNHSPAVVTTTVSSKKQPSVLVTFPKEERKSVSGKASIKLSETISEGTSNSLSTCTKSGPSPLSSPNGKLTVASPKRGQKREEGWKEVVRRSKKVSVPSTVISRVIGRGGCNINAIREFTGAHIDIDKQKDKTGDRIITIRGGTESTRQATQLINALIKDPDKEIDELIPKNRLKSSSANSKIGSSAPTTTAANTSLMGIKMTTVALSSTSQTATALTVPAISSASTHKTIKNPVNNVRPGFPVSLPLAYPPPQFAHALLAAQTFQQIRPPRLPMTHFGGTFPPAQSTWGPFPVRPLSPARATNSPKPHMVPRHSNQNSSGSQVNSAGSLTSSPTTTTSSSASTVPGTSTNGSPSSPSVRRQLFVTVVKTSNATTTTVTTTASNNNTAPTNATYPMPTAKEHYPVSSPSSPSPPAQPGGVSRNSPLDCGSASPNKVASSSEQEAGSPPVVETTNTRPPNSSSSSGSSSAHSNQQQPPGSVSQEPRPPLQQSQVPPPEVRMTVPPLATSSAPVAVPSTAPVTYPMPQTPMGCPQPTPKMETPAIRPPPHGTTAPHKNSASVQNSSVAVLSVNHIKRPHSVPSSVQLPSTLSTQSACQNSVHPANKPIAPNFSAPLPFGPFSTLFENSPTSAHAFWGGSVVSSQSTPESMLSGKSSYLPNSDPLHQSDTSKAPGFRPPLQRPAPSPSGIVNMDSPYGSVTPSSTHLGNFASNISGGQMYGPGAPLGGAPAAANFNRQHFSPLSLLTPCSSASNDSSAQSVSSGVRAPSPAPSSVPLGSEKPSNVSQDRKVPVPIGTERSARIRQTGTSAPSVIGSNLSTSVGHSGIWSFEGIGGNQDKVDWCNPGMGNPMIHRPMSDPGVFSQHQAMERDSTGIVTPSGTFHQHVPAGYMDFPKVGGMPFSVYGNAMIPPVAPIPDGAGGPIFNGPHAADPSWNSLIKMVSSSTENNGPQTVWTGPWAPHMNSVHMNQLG
UniProt Q66PJ3: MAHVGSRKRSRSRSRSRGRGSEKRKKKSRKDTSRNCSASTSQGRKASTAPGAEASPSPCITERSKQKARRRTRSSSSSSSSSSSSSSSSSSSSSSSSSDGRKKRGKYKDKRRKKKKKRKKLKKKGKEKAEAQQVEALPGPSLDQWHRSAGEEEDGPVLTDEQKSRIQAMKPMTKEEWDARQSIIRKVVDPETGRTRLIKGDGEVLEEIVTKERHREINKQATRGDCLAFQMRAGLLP
UniProt Q9NQW6: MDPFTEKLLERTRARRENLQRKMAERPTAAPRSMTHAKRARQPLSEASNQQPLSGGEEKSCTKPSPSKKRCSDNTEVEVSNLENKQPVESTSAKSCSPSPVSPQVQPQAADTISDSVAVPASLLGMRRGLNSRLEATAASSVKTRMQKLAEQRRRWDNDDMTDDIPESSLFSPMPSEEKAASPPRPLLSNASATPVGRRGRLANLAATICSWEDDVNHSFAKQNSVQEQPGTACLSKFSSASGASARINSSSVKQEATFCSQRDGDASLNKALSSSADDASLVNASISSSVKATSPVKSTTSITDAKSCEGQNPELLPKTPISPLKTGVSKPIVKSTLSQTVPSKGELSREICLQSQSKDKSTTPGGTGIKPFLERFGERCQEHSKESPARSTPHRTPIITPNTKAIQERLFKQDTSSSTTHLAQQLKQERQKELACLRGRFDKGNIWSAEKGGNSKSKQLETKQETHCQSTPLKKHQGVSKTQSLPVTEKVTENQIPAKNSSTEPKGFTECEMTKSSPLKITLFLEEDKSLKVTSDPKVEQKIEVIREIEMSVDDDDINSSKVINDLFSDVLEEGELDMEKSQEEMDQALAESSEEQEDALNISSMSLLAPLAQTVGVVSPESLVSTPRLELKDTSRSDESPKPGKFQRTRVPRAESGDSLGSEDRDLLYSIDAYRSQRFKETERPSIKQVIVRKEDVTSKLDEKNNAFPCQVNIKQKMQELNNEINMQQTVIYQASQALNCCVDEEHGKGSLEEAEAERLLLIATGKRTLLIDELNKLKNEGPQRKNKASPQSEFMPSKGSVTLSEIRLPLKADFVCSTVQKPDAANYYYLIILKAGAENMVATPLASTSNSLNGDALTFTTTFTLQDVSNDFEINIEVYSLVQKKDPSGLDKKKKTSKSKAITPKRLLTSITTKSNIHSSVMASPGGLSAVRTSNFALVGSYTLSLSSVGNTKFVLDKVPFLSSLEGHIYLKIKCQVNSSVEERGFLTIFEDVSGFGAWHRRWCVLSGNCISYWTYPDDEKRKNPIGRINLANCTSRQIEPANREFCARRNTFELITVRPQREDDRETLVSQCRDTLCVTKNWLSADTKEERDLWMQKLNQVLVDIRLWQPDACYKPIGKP
UniProt Q68EM7, 93-117: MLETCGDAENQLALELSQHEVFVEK
UniProt Q6NXT1: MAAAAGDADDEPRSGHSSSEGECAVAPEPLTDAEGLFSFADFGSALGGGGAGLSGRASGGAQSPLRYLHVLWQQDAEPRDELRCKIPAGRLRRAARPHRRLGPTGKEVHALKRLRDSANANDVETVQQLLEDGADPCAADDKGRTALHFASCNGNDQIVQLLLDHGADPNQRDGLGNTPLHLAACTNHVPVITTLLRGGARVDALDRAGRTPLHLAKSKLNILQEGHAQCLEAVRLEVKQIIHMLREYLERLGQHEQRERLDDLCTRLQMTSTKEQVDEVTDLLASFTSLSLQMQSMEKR
UniProt Q8TER5, whole entry, looked up: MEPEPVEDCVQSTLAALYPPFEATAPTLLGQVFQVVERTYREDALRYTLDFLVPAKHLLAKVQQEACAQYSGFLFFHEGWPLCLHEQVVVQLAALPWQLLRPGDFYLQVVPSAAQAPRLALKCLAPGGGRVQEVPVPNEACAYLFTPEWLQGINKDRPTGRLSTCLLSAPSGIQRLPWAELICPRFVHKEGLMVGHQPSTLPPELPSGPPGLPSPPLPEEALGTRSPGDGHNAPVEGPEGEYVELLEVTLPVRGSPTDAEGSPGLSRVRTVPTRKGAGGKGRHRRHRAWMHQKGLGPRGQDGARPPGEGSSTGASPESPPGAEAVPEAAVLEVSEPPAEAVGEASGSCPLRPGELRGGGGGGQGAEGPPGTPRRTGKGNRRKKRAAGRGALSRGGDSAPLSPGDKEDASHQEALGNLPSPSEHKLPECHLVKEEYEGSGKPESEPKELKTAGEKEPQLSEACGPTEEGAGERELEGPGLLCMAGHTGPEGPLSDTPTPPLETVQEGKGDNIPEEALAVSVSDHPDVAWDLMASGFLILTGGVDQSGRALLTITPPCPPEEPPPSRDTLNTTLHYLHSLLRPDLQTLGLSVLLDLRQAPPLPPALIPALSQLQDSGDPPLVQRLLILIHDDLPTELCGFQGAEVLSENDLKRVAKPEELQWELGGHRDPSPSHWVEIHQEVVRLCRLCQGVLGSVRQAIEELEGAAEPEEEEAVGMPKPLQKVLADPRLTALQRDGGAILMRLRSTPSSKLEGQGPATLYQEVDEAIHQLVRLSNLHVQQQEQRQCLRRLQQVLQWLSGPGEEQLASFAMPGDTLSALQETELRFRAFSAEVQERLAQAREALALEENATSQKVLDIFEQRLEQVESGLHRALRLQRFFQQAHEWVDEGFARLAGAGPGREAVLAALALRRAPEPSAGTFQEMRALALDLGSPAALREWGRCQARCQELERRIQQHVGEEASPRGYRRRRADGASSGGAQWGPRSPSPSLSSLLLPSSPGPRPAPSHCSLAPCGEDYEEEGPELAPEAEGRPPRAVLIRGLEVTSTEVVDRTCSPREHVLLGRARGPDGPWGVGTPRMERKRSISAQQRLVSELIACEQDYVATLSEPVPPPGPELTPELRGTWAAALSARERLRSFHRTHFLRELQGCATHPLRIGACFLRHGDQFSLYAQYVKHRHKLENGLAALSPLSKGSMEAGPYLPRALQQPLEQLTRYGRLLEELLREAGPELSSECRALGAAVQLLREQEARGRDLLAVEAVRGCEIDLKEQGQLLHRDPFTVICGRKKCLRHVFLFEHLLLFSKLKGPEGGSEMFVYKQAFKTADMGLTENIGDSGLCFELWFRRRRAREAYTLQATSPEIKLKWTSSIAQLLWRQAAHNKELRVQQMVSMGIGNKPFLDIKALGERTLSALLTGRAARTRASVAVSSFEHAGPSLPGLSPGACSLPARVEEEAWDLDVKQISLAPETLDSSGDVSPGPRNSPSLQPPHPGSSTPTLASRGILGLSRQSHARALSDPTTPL
UniProt Q9NP61: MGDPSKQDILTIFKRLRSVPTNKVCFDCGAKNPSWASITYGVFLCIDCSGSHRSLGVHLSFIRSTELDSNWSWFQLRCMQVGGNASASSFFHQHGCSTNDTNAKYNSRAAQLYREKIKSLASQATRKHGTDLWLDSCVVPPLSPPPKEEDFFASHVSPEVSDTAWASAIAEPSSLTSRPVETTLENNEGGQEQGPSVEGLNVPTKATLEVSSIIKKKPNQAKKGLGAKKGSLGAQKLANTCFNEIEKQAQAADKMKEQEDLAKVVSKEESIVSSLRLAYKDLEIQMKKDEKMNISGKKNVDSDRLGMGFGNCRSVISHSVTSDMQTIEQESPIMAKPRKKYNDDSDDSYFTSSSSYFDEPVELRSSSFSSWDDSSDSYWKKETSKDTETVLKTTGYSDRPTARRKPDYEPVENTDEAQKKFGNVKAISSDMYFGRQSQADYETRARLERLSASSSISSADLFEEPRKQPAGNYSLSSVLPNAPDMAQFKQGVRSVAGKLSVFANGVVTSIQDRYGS
UniProt Q6ZW76, 360-380: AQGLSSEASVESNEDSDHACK

Assays:
[1] = compound: ClCC(=O)N[C@@H]1CCCc2ccccc12; test: log2 mean competition ratio of IA-DTB cysteine labelling (DMSO/compound) (log2 ratio); higher = stronger cysteine engagement by compound; conditions: treatment time: 4 h, cell line lysate: HEK293T
Procedure: (§1)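 IA-DTB competitive cysteine chemoproteomics in HEK293T RIPA lysate. Lysates were treated with compound 29 or 30 at 50 or 200 µM for 4 h, then IA-DTB (500 µM, 1 h), trypsin-digested, NeutrAvidin-enriched and analysed by diaPASEF. Competition ratio = intensity DMSO / intensity compound (n=4 treated, n=64 DMSO); binding: mean log2 CR ≥ 1 and p ≤ 0.05 plus QC filters. Target is the cysteine site.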

[2] = compound: ClCC(=O)N[C@H]1CCCc2ccccc12; test: as above; conditions: treatment time: 4 h, cell line lysate: HEK293T
Procedure: as §1

Row | Target | log2 mean competition ratio ([1]; 50 µM) | log2 mean competition ratio ([1]; 200 µM) | log2 mean competition ratio ([2]; 50 µM) | log2 mean competition ratio ([2]; 200 µM)
1 | AP3M1 C236 (UniProt Q9Y2T2) | -0.0836 | 0.131 | -0.493 | 0.106
2 | AS3MT C85 | 0.125 | 0.19 | -0.078 | 0.446
3 | ARHGAP44 C367 | -0.0674 | -0.347 | -0.328 | 0.0302
4 | ARHGAP19 C359 (UniProt Q14CB8) | 0.0487 | -0.0757 | 0.0282 | -0.507
5 | ARHGAP31 C572 | 0.117 | 0.169 | -0.35 | 0.206
6 | ANKRD17 C1690 (UniProt O75179) | -0.301 | -0.179 | 0.143 | 0.0958
7 | ARL6IP4 C59 (UniProt Q66PJ3) | -0.104 | 0.425 | 0.0737 | 0.133
8 | APEX1 C93 (UniProt P27695) | -0.222 | 0.0412 | -0.27 | -0.0206
9 | AQR C1245 (UniProt O60306) | 0.152 | -0.24 | -0.0879 | -0.325
10 | AP2B1 C380 (UniProt P63010) | 0.106 | 0.191 | -0.077 | 0.139
11 | ANLN C353 (UniProt Q9NQW6) | 0.024 | -0.054 | 0.489 | 0.251
12 | ARHGAP17 C53 (UniProt Q68EM7) | -0.0804 | -0.0336 | -0.292 | -0.0379
13 | ARHGEF2 C342 | -0.0756 | -0.000918 | 0.254 | 0.0865
14 | ANKRD54 C265 (UniProt Q6NXT1) | -0.189 | 0.306 | -0.00632 | 0.388
15 | ARMC6 C435 (UniProt Q6NXE6) | -0.197 | 0.558 | 0.459 | 0.426
16 | ARHGAP11A C908 (UniProt Q6P4F7) | -0.0845 | 0.0683 | -0.000656 | 0.0271
17 | APBA2 C483 (UniProt Q99767) | -0.393 | -0.547 | -0.362 | -0.448
18 | ARHGAP24 C234 (UniProt Q8N264) | -0.0819 | -0.0316 | -0.163 | -0.0362
19 | ARHGEF40 C1233 (UniProt Q8TER5) | 0.0155 | 0.0765 | 0.0657 | 0.243
20 | ARFGAP3 C312 (UniProt Q9NP61) | 0.247 | 0.0826 | 0.0302 | 0.0665
21 | ANLN C469 (UniProt Q9NQW6) | 0.206 | -0.318 | 0.425 | -0.201
22 | ARMT1 C315 (UniProt Q9H993) | -0.0822 | -0.274 | -0.278 | -0.225
23 | ANKS3 C379 (UniProt Q6ZW76) | 0.385 | 0.0363 | -0.0738 | 0.275

Row | Target | log2 mean competition ratio ([1]; 50 µM) | log2 mean competition ratio ([1]; 200 µM) | log2 mean competition ratio ([2]; 50 µM) | log2 mean competition ratio ([2]; 200 µM)
24 | AP1G1 C400 | -0.0229 | -0.237 | -0.167 | -0.28
25 | AP2A1 C970 (UniProt O95782) | 0.474 | 0.102 | 0.374 | 0.0968
26 | ARPC1B C70 (UniProt O15143) | -0.0581 | -0.0727 | -0.206 | 0.0779
27 | AP1G1 C539 | 0.0381 | -0.245 | 0.0879 | -0.304
28 | ARHGEF12 C1528 (UniProt Q9NZN5) | 0.615 | 0.357 | 0.16 | 0.153
29 | APC C2664 (UniProt P25054) | 0.0728 | -0.352 | -0.153 | -0.159
30 | AR C519 | 0.0116 | 0.163 | 0.127 | 0.202
31 | AP2A1 C171 (UniProt O95782) | 0.294 | 0.205 | 0.692 | 0.349
32 | ARFGAP3 C241 (UniProt Q9NP61) | -0.0483 | -0.0243 | -0.275 | -0.0126
33 | AP2A2 C282 (UniProt O94973) | -0.0353 | 0.0414 | -0.279 | -0.0221
34 | ANKRD52 C169 (UniProt Q8NB46) | 0.0844 | -0.247 | 0.14 | -0.174
35 | APAF1 C426 (UniProt O14727) | -0.0665 | -0.0423 | 0.0626 | 0.0692
36 | ANLN C260 (UniProt Q9NQW6) | -0.209 | -0.00554 | 0.232 | 0.0587
37 | ASH1L C157 | -0.425 | 0.278 | -0.427 | 0.179
38 | AP3D1 C348 (UniProt O14617) | -0.304 | -0.133 | -0.532 | -0.106
39 | ASCC3 C1874 (UniProt Q8N3C0) | 0.042 | -0.28 | -0.0292 | -0.378
40 | APBA2 C319 (UniProt Q99767) | 0.113 | 0.27 | -0.492 | 0.307
41 | APC C995 (UniProt P25054) | 0.355 | -0.0185 | -0.372 | 0.383
42 | ANLN C71 (UniProt Q9NQW6) | 0.0363 | 0.0167 | 0.443 | -0.0251
43 | ARIH1 C327 (UniProt Q9Y4X5) | -0.0185 | -0.119 | 0.384 | -0.21
44 | ANKS6 C268 (UniProt Q68DC2) | -0.233 | -0.104 | -0.0595 | 0.055
45 | ARHGAP17 C97 (UniProt Q68EM7) | -0.327 | -0.187 | -0.168 | -0.277

Reprinted at random: 3 records from the list
Row | Target | log2 mean competition ratio ([1]; 50 µM) | log2 mean competition ratio ([1]; 200 µM) | log2 mean competition ratio ([2]; 50 µM) | log2 mean competition ratio ([2]; 200 µM)
19 | ARHGEF40 C1233 (UniProt Q8TER5) | 0.0155 | 0.0765 | 0.0657 | 0.243
1 | AP3M1 C236 (UniProt Q9Y2T2) | -0.0836 | 0.131 | -0.493 | 0.106
6 | ANKRD17 C1690 (UniProt O75179) | -0.301 | -0.179 | 0.143 | 0.0958
